# According to PubChem BioAssay AID540276 (National Center for Advancing Translational Sciences (NCATS), 2011):
# Screen size: about 300,000 compounds; about 5,400 (1.8%) were called active. This list was built around the results that the source calls inconclusive (neither active nor inactive); the mix of calls is not that of the screen. The call rests on the fitted dose curve; tested in HEK293 cells. Potencies of inconclusive entries are doubtful fits and often do not repeat.
# Experiment: qHTS for inhibitors of binding or entry into cells for Marburg Virus
# Details: Marburg virus pseudotyped entry inhibition, cell reporter; activity change, negative = inhibition: at 37.8 µM (top of the series) unless noted
# On the % scale 0 is the no-effect control and ±100 the full control effect; potency means the concentration at half of the fitted maximal effect.
Structure (SMILES),Potency,"activity change, negative = inhibition"
CC(=O)Nc1ccc(S(=O)(=O)NC2CCSc3ccccc32)cc1 (centres undefined),active: 10 µM,–
CCN1CCN(Cc2nc3c(c(=O)n(C)c(=O)n3C)n2Cc2cccc3ccccc23)CC1,"inconclusive: 11.6 µM [inhibitor, partial curve, poor fit]",–
CC1(c2ccc(Cl)cc2Cl)OCC(Cn2ccnc2)O1 (centres undefined),–,inactive: -11.6%
COc1ccc(-c2cc(C(F)(F)F)nc(SCC(=O)Nc3sc4c(c3C#N)CCC4)n2)cc1,"inconclusive: 14.6 µM [inhibitor, partial curve, poor fit]",–
CCCN(CC(=O)Nc1ccc(C)cc1Br)CC(=O)Nc1ccc(F)c(F)c1F,"inconclusive: 35.5 µM [inhibitor, single point]",–
O=C1c2[nH]nc(-c3ccccc3O)c2C(c2ccccc2)N1Cc1ccco1 (centres undefined),"inconclusive: 3.66 µM [inhibitor, full curve, poor fit]",–
CCC1CCCCN1CCCNC(=O)CN1C(=O)COc2ccc(S(=O)(=O)N3CCC(C)CC3)cc21 (centres undefined),"inconclusive: 35.5 µM [inhibitor, single point]",–
COc1nc(Nc2cccc(C(F)(F)F)c2)nc(OC)n1,"inconclusive: 32.6 µM [inhibitor, single point]",–
Cc1ccc(C(C(=O)NCc2ccco2)N(CCc2ccccc2)C(=O)Cn2nnc3ccccc32)o1 (centres undefined),"inconclusive: 28.2 µM [inhibitor, single point]",–
COCc1c(C(=O)Nc2ccc3nc(N4CCOCC4)sc3c2)oc2ccccc12,"inconclusive: 35.5 µM [inhibitor, single point]",–
Cc1ccc(C(=O)Nc2cccc(-c3nc4ncccc4o3)c2)cc1,"inconclusive: 11.2 µM [inhibitor, partial curve]",–
CC(Oc1ccccc1)C(=O)Nc1ccc(S(=O)(=O)N2CCN(C)CC2)cc1 (centres undefined),"inconclusive: 3.16 µM [activator, single point]",–
COC(=O)Cc1ccc(NC(=S)NNC(=O)C2CC2)cc1,–,inactive: -1.02% [at 46.1 µM]
O=C(CCCCCn1c(=O)c2sccc2n(CC(=O)Nc2cccc(Cl)c2)c1=O)NCc1ccc2c(c1)OCO2,"inconclusive: 6.31 µM [inhibitor, partial curve, poor fit]",–
COc1cccc(N2CC(O)=C(c3nc4ccccc4c(=O)[nH]3)C2=N)c1,"inconclusive: 1.3 µM [inhibitor, full curve, poor fit]",–
CCCCCCCCCc1nc2sc3c(c2c(=O)n1NC(=O)c1ccc([N+](=O)[O-])cc1)CC(C)(C)OC3,"inconclusive: 15.8 µM [inhibitor, partial curve, poor fit]",–
C#CC[N+](C)(C)CCCCCCCCC,"inconclusive: 29.1 µM [inhibitor, single point]",–
COC(=O)c1ccccc1NC(=O)COC(=O)c1cccnc1,"inconclusive: 0.0052 µM [inhibitor, full curve, poor fit]",–
CCCOc1c(OC)cccc1C1CC(=O)Nc2cc3c(cc21)OCO3 (centres undefined),"inconclusive: 5.01 µM [inhibitor, partial curve, poor fit]",–
CC(=O)c1cccc(N(C(=O)CNC(=O)c2ccco2)C(C(=O)NC2CCCC2)c2ccncc2)c1 (centres undefined),"inconclusive: 0.562 µM [inhibitor, full curve, poor fit]",–
COc1cc(Cl)c(C)cc1NC(=O)c1cc(S(=O)(=O)N(C)C)ccc1N1CCCC1,"inconclusive: 4.11 µM [activator, single point]",–
O=C(O)C(Cc1ccc(Cl)cc1)NS(=O)(=O)c1ccc(Cl)cc1 (centres undefined),"inconclusive: 3.55 µM [activator, single point]",–

Structure (SMILES),Potency,"activity change, negative = inhibition"
COc1cc(CNc2nc3ccccc3s2)cc(OC)c1OC,"inconclusive: 22.4 µM [inhibitor, partial curve, poor fit]",–
Cc1cccc(Nc2nc(N)c([N+](=O)[O-])c(N3CCOCC3)n2)c1,active: 5.62 µM,–
CCC(=O)Nc1ccc(C(=O)COC(=O)C(CCSC)NC(=O)COc2ccccc2)cc1 (centres undefined),–,inactive: 9.99%
CN(CC(=O)Nc1ccccc1C(F)(F)F)C(=O)COc1ncnc2ccccc12,–,inactive: 10% [at 46.1 µM]
Cc1cccc(C)c1OCc1cc(C(=O)N2CCCC2c2nonc2C)no1 (centres undefined),"inconclusive: 35.5 µM [inhibitor, single point]",–
COc1ccccc1/C=C/C(=O)c1ccc(NC(C)=O)cc1,active: 12.6 µM,–
O=[N+]([O-])c1cc(S(=O)(=O)N2CCCCCC2)ccc1F,active: 11.2 µM,–
CCc1ccc(NC(=O)CSc2nc(=O)n3cc(C)ccc3n2)cc1,–,inactive: -13.9%
COc1ccc(NC(=O)c2cn(CC(C)C)c(=O)c3cc(OC)c(OC)cc23)cc1Cl,"inconclusive: 11.2 µM [inhibitor, partial curve, poor fit]",–
CCC1CN(C(=O)Nc2ccc(C)cc2)c2cc(C)ccc2O1 (centres undefined),active: 11.2 µM,–
Cc1ccc2c(COC(=O)C3CC(=O)N(c4ccc5c(c4)OCCO5)C3)cc(=O)oc2c1 (centres undefined),–,inactive: -6.38%
Cc1ccc(NC(=O)CN(c2ccccc2)S(=O)(=O)N(C)C)cc1Cl,"inconclusive: 35.5 µM [inhibitor, single point]",–
CCC(C)(C)NC(=O)C(c1ccccc1Cl)N(Cc1cccnc1)C(=O)CCC(=O)Nc1cc(C)on1 (centres undefined),–,inactive: -5.69% [at 46.1 µM]
CC(C)Cc1nc2ccccc2[nH]1,–,inactive: 7.41%
COc1ccc(CNC(=O)C(c2ccccc2F)N(C(=O)c2csnn2)C2CC2)cc1 (centres undefined),–,inactive: -3.65% [at 46.1 µM]
C=CCOc1ccc(/C=N/Nc2ccccn2)cc1OC,"inconclusive: 3.55 µM [activator, partial curve, poor fit]",–
COc1ccc(-n2cc(CNCCc3cscn3)c(-c3ccccc3Cl)n2)cc1,"inconclusive: 28.2 µM [inhibitor, partial curve, poor fit]",–
CCCC(c1nnnn1C(C)(C)CC)N(CCCO)Cc1cc2cc(C)cc(C)c2[nH]c1=O (centres undefined),"inconclusive: 31.6 µM [inhibitor, partial curve, poor fit]",–
C=CC[n+]1c(-c2ccc(C)cc2)csc1Nc1c(C)n(C)n(-c2ccccc2)c1=O,"inconclusive: 7.94 µM [inhibitor, partial curve, poor fit]",–
O=C(NC1CCCCC1)c1cc(Cl)ccc1[N+](=O)[O-],–,inactive: 0.923%
COc1ccc(C(=O)OCc2cc(=O)n3ccsc3n2)cc1F,"inconclusive: 10 µM [inhibitor, partial curve, poor fit]",–
O=C(Nc1nc(-c2ccccc2)cs1)c1cccc([N+](=O)[O-])c1C(=O)O,"inconclusive: 35.5 µM [activator, single point]",–

Structure (SMILES),Potency,"activity change, negative = inhibition"
C=CCN1C(=O)NC(=O)/C(=C/C=C/c2ccccc2)C1=O,–,inactive: 17.2%
CC(C)CN=C(NS(=O)(=O)c1ccccc1)C(Cl)(Cl)Cl,"inconclusive: 11.2 µM [inhibitor, partial curve, poor fit]",–
C#CC(C)(C)NS(=O)(=O)c1cc(-c2nnc(Nc3ccc(C)cc3)c3ccccc23)ccc1C,"inconclusive: 15.8 µM [inhibitor, partial curve, poor fit]",–
Oc1ccc(N=Cc2ccc(-c3cccs3)s2)cc1,"inconclusive: 5.8 µM [inhibitor, full curve, poor fit]",–
Cc1nn(S(=O)(=O)c2ccc(Cl)cc2)c(C)c1Sc1ccc([N+](=O)[O-])cc1,"inconclusive: 5.62 µM [inhibitor, single point]",–
CCOc1ccc(NC(=O)C(CC(=O)O)Cc2ccc(C)cc2)cc1 (centres undefined),"inconclusive: 1.26 µM [inhibitor, single point]",–
CCc1nc2ccccc2n(CCOCCn2c(=O)c(CC)nc3ccccc32)c1=O,"inconclusive: 18.3 µM [activator, partial curve, poor fit]",–
COc1ccc(P(=O)(COc2ccc([N+](=O)[O-])cc2)c2ccc(OC)cc2)cc1,"inconclusive: 0.355 µM [activator, single point]",–
COC1=Cc2c(ccc3ccc(=O)oc23)OC1(C)C,–,inactive: -26.5%
C/C(=N\NC(=O)Cn1c(C)nc2ccccc21)c1cccs1,–,inactive: -21%
COc1cc(C)ccc1S(=O)(=O)N1CCN(C23CC4CC(CC(C4)C2)C3)CC1,"inconclusive: 28.2 µM [inhibitor, single point]",–
CCN1C(c2ccccc2)=C(c2ccccc2)S/C1=C\C=C1/SC(=S)N(C)C1=O,"inconclusive: 2.91 µM [inhibitor, partial curve, poor fit]",–
Cc1ccc2c(c1)C(=O)C(=O)N2CC1COc2ccccc2O1 (centres undefined),"inconclusive: 6.31 µM [inhibitor, single point]",–
COc1ccc(NC(=O)CCS(=O)(=O)c2nc(-c3cccs3)cc(C(F)(F)F)n2)cc1OC,"inconclusive: 20 µM [inhibitor, single point]",–
Cc1ccccc1NC(=S)c1nc2ccccc2[nH]1,"inconclusive: 0.316 µM [activator, partial curve, poor fit]",–
CC1CCCCN1C(=O)COc1ccc(NC(=O)c2ccco2)cc1 (centres undefined),–,inactive: 19.6%
C/C(=N\Nc1ccccn1)c1ccc(OC(F)F)cc1,"inconclusive: 12.6 µM [activator, single point]",–
CC1(c2ccccc2)NC(=O)N(CC(=O)NCc2cccc(Cl)c2)C1=O (centres undefined),"inconclusive: 11.2 µM [activator, partial curve, poor fit]",–
CC(C)(C)c1nnc(N/N=C/c2ccccc2O)n(N)c1=O,"inconclusive: 2.24 µM [inhibitor, full curve, poor fit]",–
CSc1cccc(CN2CCN(CCC(C)C)C(CCO)C2)c1 (centres undefined),"inconclusive: 2.82 µM [activator, partial curve, poor fit]",–

# Five neighbouring compounds out of the list so far, for reference:
Structure (SMILES),Potency,"activity change, negative = inhibition"
Cc1nn(S(=O)(=O)c2ccc(Cl)cc2)c(C)c1Sc1ccc([N+](=O)[O-])cc1,"inconclusive: 5.62 µM [inhibitor, single point]",–
CCOc1ccc(NC(=O)C(CC(=O)O)Cc2ccc(C)cc2)cc1 (centres undefined),"inconclusive: 1.26 µM [inhibitor, single point]",–
CCc1nc2ccccc2n(CCOCCn2c(=O)c(CC)nc3ccccc32)c1=O,"inconclusive: 18.3 µM [activator, partial curve, poor fit]",–
COc1ccc(P(=O)(COc2ccc([N+](=O)[O-])cc2)c2ccc(OC)cc2)cc1,"inconclusive: 0.355 µM [activator, single point]",–
COC1=Cc2c(ccc3ccc(=O)oc23)OC1(C)C,–,inactive: -26.5%
